Our source for the binding values is publication PMC10771440.

For experiment [1], the target named is T1, σ^E-HA (HA-tagged extracytoplasmic function σ factor σ^E of Streptomyces coelicolor) (Streptomyces coelicolor) (UniProt P38133).
T1 sequence: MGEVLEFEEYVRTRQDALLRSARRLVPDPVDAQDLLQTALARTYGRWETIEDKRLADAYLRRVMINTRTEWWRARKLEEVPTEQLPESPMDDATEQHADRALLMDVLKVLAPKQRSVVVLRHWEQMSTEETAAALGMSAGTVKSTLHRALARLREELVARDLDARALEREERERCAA
Briefly: affinity purification with mass spectrometry; non-stressed cells; lysate of S. coelicolor LK3802 (σ^E-HA) in 1×P buffer, no nuclease treatment, mouse anti-HA antibody with Protein-G Plus agarose, overnight at 4 °C; untagged wt LK3801 as background; label-free quantification, three biological replicates.

Experiment [2] has as its target T1, σ^E-HA (HA-tagged extracytoplasmic function σ factor σ^E of Streptomyces coelicolor) (Streptomyces coelicolor). Briefly: affinity purification with mass spectrometry; cells stressed with 4% EtOH for 1 h; lysate of S. coelicolor LK3802 (σ^E-HA) in 1×P buffer, no nuclease treatment, mouse anti-HA antibody with Protein-G Plus agarose, overnight at 4 °C; untagged wt LK3801 as background; label-free quantification, three biological replicates.

The target is the same in experiment [3]. Briefly: condition: only cells stressed with 4% EtOH for 1 h; affinity purification with mass spectrometry; cells stressed with 4% EtOH for 1 h; lysate of S. coelicolor LK3802 (σ^E-HA) in 1×P buffer, no nuclease treatment, mouse anti-HA antibody with Protein-G Plus agarose, overnight at 4 °C; untagged wt LK3801 as background; label-free quantification, three biological replicates.

Results are given in words; binding and its absence hold for the method and conditions named. In cells and extracts the contact can be indirect. Here binding means that the protein was enriched with, or labelled near, the bait; the list need not be complete. For some assays here: A no says only that the protein was not detected with the bait. Tags and fused reporters may be left off the sequences shown.

As for transcriptional regulator NdgR, the binding entry in experiment [1] was “no binding (only cells without EtOH stress)”; in experiment [2], “binds”.

For nucleoid-binding protein Lsr2, the binding result is on record as “no binding (only cells without EtOH stress)” in experiment [1] and “binds” in experiment [2].

For HupA, a DNA binding protein, the binding entry in experiment [1] and in experiment [2] was “binds” each time.

nucleoid-binding protein sIHF: the binding result was “no binding (only cells without EtOH stress)” in experiment [1] and “binds” in experiment [2].

transcriptional regulator BldC: the binding entry in experiment [1] is “binds”; in experiment [3] it was “no binding”.

As for transcriptional regulator CarD, the binding result in experiment [1] is listed as “binds”; in experiment [3], “no binding”.

Regarding putative anti-σ factor ApgA, the binding result in experiment [1] is reported as “binds”; in experiment [3], “no binding”.

As for termination factor Rho, the binding result in experiment [1] is reported as “binds”; in experiment [3], “no binding”.

B1: putative nucleic acid binding protein SCO5570 (protein, UniProt Q9ZBQ9 1-217)
chain: MVLNARLDHRDPLVFDTHELGRRPGALQRLTRTVDAPKDFGLQGVIGVPEGAPVELDLRLESVMEGVLVTGTARARAAGECVRCLEPLEQQLEADFQELFSYPDADDRGRPVAEPGDDAEDDEDRFFVEDGLIGLEPVLRDAVVLALPMQPVCQEDCRGLCSQCGVRLSDDPDHHHDAVDIRWAALQGLAGSLGDGEKDEMSGDGADSADAAEKQEK
For the molecule B1, the values for the binding entry in experiment [1] and in experiment [3] were “binds” and “no binding”, respectively.

B2: putative nucleic acid binding protein SCO0174 (protein, UniProt Q9RIZ1 1-323)
chain: MGAVSPREAGVRNSFDGEGAVMYAHLGDRLIVESPSTGVTRRDGEIVGLHHDDGTPPYDVRWSDTGDVTLVFPGPDARVNHGAEEAEASQGAPSGVSRGEGVDSSLIAAGAGDLGRRLAAARRRRGLSLEQVARRARMAPQYLAYLETHTADPGFGSLVRLADALGTTYAELQGGGADRPPGQGAALRNPTLRDLDEKECRALLSAHGVGRLALNTPDGPAVFPLNYVVSQGTIAFRTDPDAATAAAVDSEVAFEVDHIDDPMSQGWSVLAVGRCRAVTDPEEVRRLAEKAHTEPWAGGRRTMWLAVETERLTGRRITSVSGS
B2: the results for the binding result in experiment [1] and in experiment [3] were “binds” and “no binding”, respectively.
